Measurements published in PubChem BioAssay AID2685 (National Center for Advancing Translational Sciences (NCATS), 2010).
The other results are listed elsewhere or left out. These are further read-outs of the screen, such as a control signal, another cell line or another target. No call is given for them. Most of these compounds were active or inconclusive in the main read-out, so they are no random draw. The note in brackets gives the kind of curve behind each potency; many fits are weak.

Experiment: qHTS Assay for Lipid Storage Modulators in Drosophila S3 Cells;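 as to cell number change: cells counted by Cell Tracker Red CMTPX staining in the red channel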
Conditions: BODIPY lipid droplet fluorescence, 18-24 h; for cell number change: measured here: cell count max response, cells fed with added oleic acid
Outline: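 Drosophila S3 cells got compounds at several concentrations plus oleic acid (400 uM solution). Laser-scanning cytometry with 488 nm excitation read lipid droplets at 500-530 nm and cells at 575-640 nm. Percent activity was relative to 20 uM Triacsin C.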

[1] = measured here: cell number channel AC50, cells fed with added oleic acid
[2] = measured here: lipid fluorescence (Fed channel) AC50, cells fed with added oleic acid

SMILES	AC50 [1]	cell number change [%]	AC50 [2]
COCCCn1c(=O)c2sccc2n(Cc2cccc(F)c2)c1=O	2.06 µM [rising, partial curve]		
O=C(NNC(=O)c1ccccc1O)c1ccc(Br)cc1		-24.8	6.51 µM [falling, single point]
CNC(=O)/C(=N\O)c1ccccc1		0.864	6.51 µM [rising, single point]
O=C(NCc1cccs1)c1nn2cccnc2c1Cl	0.326 µM [rising, single point]		0.146 µM [rising, full curve, poor fit]
O=C(CC1C(=O)N(Cc2ccccc2)C(=S)N1CCN1CCOCC1)Nc1ccc(F)cc1 (stereo not given)		100	0.651 µM [rising, partial curve, poor fit]
Cc1ccc(C(C#N)c2ccc3c(C(F)(F)F)cc(C(F)(F)F)nc3n2)cc1 (stereo not given)		14.3	0.092 µM [rising, full curve, poor fit]
Cc1ccc([N+](=O)[O-])cc1S(=O)(=O)Nc1ccccn1		-5.99	6.51 µM [falling, single point]
O=C(O)CC1(CC(=O)NCc2ccc(C(F)(F)F)cc2)CCCCC1	4.11 µM [falling, single point]	15.1	
CCN(CC)C(=O)COC(=O)c1cc(-c2ccc(OC)cc2)nc2ccccc12		11.9	0.58 µM [rising, full curve]
COc1ccc(-c2cc(C(F)(F)F)nc(NCc3cccs3)n2)cc1		12.2	0.651 µM [rising, full curve, poor fit]
CCN1CCN(c2ccc(S(=O)(=O)N3CCCCC3)cc2NC(=O)CC(C)c2ccccc2)CC1 (stereo not given)	18.4 µM [rising, single point]	89.2	
Cc1cc(NC(=O)Nc2ccccc2Cl)no1		-11.9	0.103 µM [falling, full curve, poor fit]
C=CCN1C(=O)C(O)(CC(=O)c2ccc(N)cc2)c2ccccc21 (stereo not given)		-1.01	0.206 µM [falling, full curve, poor fit]
Cc1ccc(OCCNc2cc(N3CCN(CCO)CC3)ccc2[N+](=O)[O-])cc1C		-29.5	8.2 µM [falling, single point]
C=CCC1Cc2c(Br)cccc2C(CC=C)N1 (stereo not given)		5.48	
Cc1ccccc1NC(=O)c1onc2c1CCCC2			10.3 µM [falling, partial curve]
CCS(=O)(=O)N1CCN(S(=O)(=O)c2ccccc2)CC1		-34.6	0.103 µM [falling, full curve, poor fit]
CCC(=O)N(CCc1ccc(OC)c(OC)c1)Cc1cc2ccc(C)cc2n2nnnc12			3.66 µM [falling, full curve]
CCN1CCn2c3c(c4cc(Cl)ccc42)CCCC31 (stereo not given)		-27.2	1.3 µM [falling, full curve]
COC(=O)COc1ccc(S(=O)(=O)N2CCCCC2)cc1[N+](=O)[O-]		6.19	

SMILES	AC50 [1]	cell number change [%]	AC50 [2]
CC(NC(=O)/C=C/c1cnc2ccccc2n1)C12CC3CC(CC(C3)C1)C2 (stereo not given)		-3	4.11 µM [rising, partial curve]
Oc1ccccc1-c1nc(/C=C/c2ccccc2)nn1-c1ccccc1	32.6 µM [falling, single point]	-48.1	3.26 µM [falling, partial curve]
Cc1cc(=O)oc2c3c(cc(OCC(=O)NC(Cc4ccc(Cl)cc4)C(=O)O)c12)OC(C)(C)CC3 (stereo not given)		17.8	29.1 µM [falling, single point]
O=C(N1CCN(Cc2ccccc2)CC1)C12CC3CC(CC(C3)C1)C2	32.6 µM [falling, single point]	-56.9	
O=[N+]([O-])c1ccc(Nc2ccccc2F)nc1		-5.28	0.82 µM [falling, full curve]
CC1(C)CCc2cc(-c3ccnc(=S)[nH]3)ccc2O1	0.731 µM [falling, full curve]	-47.6	29.1 µM [falling, single point]
Cn1cnc([N+](=O)[O-])c1SCC(=O)NN		21.8	2.06 µM [rising, full curve, poor fit]
CCOc1ccc(CNS(=O)(=O)c2c(C(=O)N3CCCC3)c(C)n(C)c2C)cc1OC		-0.659	29.1 µM [rising, single point]
CCCC(=O)Nc1ccc(NC(=S)NC(=O)c2cccs2)cc1	23.1 µM [falling, single point]	-34	
CCOc1cc(CN2CCN(c3cccc(C(F)(F)F)c3)CC2)ccc1O	13 µM [falling, partial curve, poor fit]	-64.6	29.1 µM [falling, single point]
CCn1c2ccccc2c2cc(NC(=O)c3coc(=O)c(Br)c3)ccc21	6.51 µM [falling, single point]	6.2	6.51 µM [falling, single point]
Cc1ccc(C)c(-n2c(Cc3cc(=O)[nH]c(=O)[nH]3)nnc2SCC(=O)NCC2CCCO2)c1 (stereo not given)		-14.1	2.59 µM [rising, single point]
C[C@H](NC(=O)c1nc[nH]c1C(=O)NCCCCCN)C(=O)OC(C)(C)C	0.146 µM [falling, full curve, poor fit]	-36.6	0.092 µM [falling, full curve, poor fit]
O=C(COC(=O)c1ccccc1Nc1ccccc1)NCc1ccco1	6.51 µM [falling, single point]		6.51 µM [falling, single point]
CCOc1ccc(-n2nnnc2SCC(=O)Nc2cccc(O)c2)cc1		-20.7	18.4 µM [falling, single point]
CC(Sc1nc2ccccc2s1)C(=O)c1c(N)n(C)c(=O)n(C)c1=O (stereo not given)		-0.844	
O=C1NC(c2ccccc2)(C(F)(F)F)C(=O)N1Cc1cccnc1 (stereo not given)	2.59 µM [rising, partial curve]	39.6	
CCOc1ccc(NC(=O)CN(C)C(=O)c2ccc(NC3CC3)c([N+](=O)[O-])c2)cc1OCC		2.93	
COC(=O)C1=C(C(=O)OC)[C@@H]2N(Cc3ccccc3)c3ccccc3[C@@]23C[C@@H](C(=O)OC)N(C(=O)c2ccc(Br)cc2)C3=N1		-3.59	0.231 µM [rising, full curve, poor fit]
CN(C)CCNc1nc2sc3c(c2c(=O)n1CCc1ccccc1)CCCCC3		-13.9	32.6 µM [falling, single point]

Some of the entries so far, as labelled records:
COC(=O)COc1ccc(S(=O)(=O)N2CCCCC2)cc1[N+](=O)[O-]
  cell number change [%]: 6.19
COC(=O)C1=C(C(=O)OC)[C@@H]2N(Cc3ccccc3)c3ccccc3[C@@]23C[C@@H](C(=O)OC)N(C(=O)c2ccc(Br)cc2)C3=N1
  cell number change [%]: -3.59
  AC50 [2]: 0.231 µM [rising, full curve, poor fit]

More compounds follow:

SMILES	AC50 [1]	cell number change [%]	AC50 [2]
Cc1ccc(S(=O)(=O)NC(C)C(=O)Nc2ccc(C(N)=O)cc2)cc1 (stereo not given)		-3.88	3.66 µM [falling, partial curve]
N#Cc1cc(C(=O)c2cc(F)ccc2O)cn(-c2nccs2)c1=O	4.61 µM [rising, full curve, poor fit]	38.4	6.51 µM [rising, partial curve, poor fit]
Cc1cccc(NC(=S)N2CCC(O)CC2)c1C		8.26	0.562 µM [falling, partial curve]
CCOC(=O)CNc1nc(Cl)c(C#N)s1		-5.89	
CC1CC(C)CN(C(=O)c2cc(-c3ccncc3)nc3ccccc23)C1 (stereo not given)			3.66 µM [rising, single point]
CCC(C(=O)NCc1cccc(C)c1)n1nc(C)c2c(C)n(-c3ccccc3)nc2c1=O (stereo not given)		2.65	6.51 µM [falling, single point]
O=C(CSc1nc2ccccc2o1)N/N=C/c1ccc(O)c(O)c1		-20.6	
Cc1cc(C(=O)C(=O)O)c(C)n1-c1ccc(Cl)cc1	6.51 µM [falling, single point]	0.615	
CC(C)NC(=O)COC(=O)c1ccc(Cl)c(S(N)(=O)=O)c1	3.66 µM [falling, single point]	-28	
COc1cc(Cl)c(C)cc1NC(=O)CSc1nc2ccccc2o1			0.731 µM [rising, single point]
CCOC(=O)c1cnc2nc(N3CCOCC3)nn2c1N		8.28	
c1ccc2oc(-c3csc(NCC4CCCO4)n3)cc2c1 (stereo not given)	2.59 µM [rising, full curve]	49.6	
O=c1c2ccccc2c(/C=N/c2ncn[nH]2)c(O)n1Cc1ccccc1		-22.3	
COc1ccc(OC(C)C(=O)N2CCN(c3ccccn3)CC2)cc1 (stereo not given)		-2.43	20.6 µM [rising, single point]
Cc1nn(-c2ccccc2)c(C)c1/C=N\NS(=O)(=O)c1ccc(Cl)cc1	13 µM [rising, partial curve]	76.2	6.51 µM [rising, single point]
CCN(CC)c1ccc(/C=N/NC(=O)OC)c(O)c1			2.06 µM [falling, partial curve]
CCn1cc(C(=O)NCc2ccco2)c(=O)c2cc(S(=O)(=O)N3CCC(C)CC3)ccc21	0.326 µM [falling, full curve, poor fit]	-16	0.146 µM [falling, full curve, poor fit]
CC(=O)c1c(C)nc(-c2ccccc2)nc1NC(=O)C(C)C	10.3 µM [rising, partial curve]	78.4	0.00517 µM [rising, full curve, poor fit]
Nc1nnc(SC2CC(=O)N(c3ccccc3)C2=O)s1 (stereo not given)		3.04	11.6 µM [rising, partial curve, poor fit]
Cc1ccc2c(CC(=O)O)coc2c1		21.5	32.6 µM [falling, partial curve, poor fit]
